# Assay results: the supplement of paper PMC6411743
# ± gives the standard deviation of the averaged measurements. This is a selection; strong and weak results do not stand in their true shares.
# Experiments:
# Test in all cases: NP40-soluble protein abundance relative to vehicle (solubility fold change) (ratio); higher = more soluble protein in presence of ATP
# ATXN10 = molecular target: T1, ATXN10 (UniProt Q9UBB4)
# T1 sequence (whole entry): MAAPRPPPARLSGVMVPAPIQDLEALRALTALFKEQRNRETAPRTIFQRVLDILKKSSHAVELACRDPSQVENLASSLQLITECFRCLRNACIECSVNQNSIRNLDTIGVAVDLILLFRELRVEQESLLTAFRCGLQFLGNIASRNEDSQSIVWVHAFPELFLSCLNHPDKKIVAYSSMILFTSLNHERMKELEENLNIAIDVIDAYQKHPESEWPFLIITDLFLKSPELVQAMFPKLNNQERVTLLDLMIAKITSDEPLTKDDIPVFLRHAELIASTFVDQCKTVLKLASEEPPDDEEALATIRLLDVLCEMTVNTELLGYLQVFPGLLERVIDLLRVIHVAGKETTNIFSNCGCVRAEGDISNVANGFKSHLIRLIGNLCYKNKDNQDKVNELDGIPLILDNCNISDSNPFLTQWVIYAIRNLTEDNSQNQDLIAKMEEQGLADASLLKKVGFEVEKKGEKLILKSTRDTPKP
# Procedure, shortened: (§1)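 Eight concentrations, 0.1 to 10 mM, were tested on Jurkat crude lysate for 10 min at room temperature and then 3 min at 37 °C, in three independent experiments. The lysate was solubilised with 0.8% NP40 and benzonase, ultracentrifuged, and the supernatant TMT-labelled for LC-MS/MS. Each value is the fold change against the detergent-processed vehicle in its own replicate, from vsn-normalised intensities.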
# FAF1 = molecular target: T2, FAF1 (UniProt Q9UNN5)
# T2 sequence (whole entry): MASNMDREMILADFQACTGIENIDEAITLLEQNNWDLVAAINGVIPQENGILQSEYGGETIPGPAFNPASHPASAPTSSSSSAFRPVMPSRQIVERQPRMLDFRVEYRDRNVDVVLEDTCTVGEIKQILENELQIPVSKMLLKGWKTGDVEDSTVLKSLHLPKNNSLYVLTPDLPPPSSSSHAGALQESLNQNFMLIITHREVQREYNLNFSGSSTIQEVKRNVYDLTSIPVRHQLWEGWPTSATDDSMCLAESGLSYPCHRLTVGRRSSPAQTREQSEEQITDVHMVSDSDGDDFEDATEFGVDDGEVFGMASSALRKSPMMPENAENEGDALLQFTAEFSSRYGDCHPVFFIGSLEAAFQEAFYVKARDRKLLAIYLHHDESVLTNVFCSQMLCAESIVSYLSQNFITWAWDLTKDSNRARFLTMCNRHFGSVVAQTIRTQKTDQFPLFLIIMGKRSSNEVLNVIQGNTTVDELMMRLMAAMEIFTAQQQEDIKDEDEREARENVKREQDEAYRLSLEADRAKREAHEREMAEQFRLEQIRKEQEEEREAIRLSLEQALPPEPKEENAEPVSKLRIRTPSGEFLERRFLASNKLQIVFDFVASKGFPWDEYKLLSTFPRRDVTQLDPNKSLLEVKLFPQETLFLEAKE
# Procedure, shortened: as §1
# GGA2 = molecular target: T3, GGA2 (UniProt Q9UJY4)
# T3 sequence (whole entry): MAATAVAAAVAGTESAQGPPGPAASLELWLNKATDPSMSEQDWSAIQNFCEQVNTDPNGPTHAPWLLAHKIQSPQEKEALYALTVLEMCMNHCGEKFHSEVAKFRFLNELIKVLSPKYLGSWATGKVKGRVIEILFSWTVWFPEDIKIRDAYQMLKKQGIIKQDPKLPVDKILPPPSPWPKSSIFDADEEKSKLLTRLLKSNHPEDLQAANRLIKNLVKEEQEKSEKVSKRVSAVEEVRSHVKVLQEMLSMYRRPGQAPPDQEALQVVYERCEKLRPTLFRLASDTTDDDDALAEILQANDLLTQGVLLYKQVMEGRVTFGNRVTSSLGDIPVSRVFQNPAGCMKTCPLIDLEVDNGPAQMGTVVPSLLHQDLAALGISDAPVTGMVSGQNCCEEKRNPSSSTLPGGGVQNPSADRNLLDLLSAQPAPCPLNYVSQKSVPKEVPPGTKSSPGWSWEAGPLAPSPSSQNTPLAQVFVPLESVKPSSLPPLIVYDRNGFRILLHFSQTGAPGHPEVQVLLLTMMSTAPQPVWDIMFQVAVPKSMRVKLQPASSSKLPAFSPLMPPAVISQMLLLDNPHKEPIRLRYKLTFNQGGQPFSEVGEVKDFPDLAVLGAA
# Procedure, shortened: as §1
# GGT7 = molecular target: T4, GGT7 (UniProt Q9UJ14)
# T4 sequence (whole entry): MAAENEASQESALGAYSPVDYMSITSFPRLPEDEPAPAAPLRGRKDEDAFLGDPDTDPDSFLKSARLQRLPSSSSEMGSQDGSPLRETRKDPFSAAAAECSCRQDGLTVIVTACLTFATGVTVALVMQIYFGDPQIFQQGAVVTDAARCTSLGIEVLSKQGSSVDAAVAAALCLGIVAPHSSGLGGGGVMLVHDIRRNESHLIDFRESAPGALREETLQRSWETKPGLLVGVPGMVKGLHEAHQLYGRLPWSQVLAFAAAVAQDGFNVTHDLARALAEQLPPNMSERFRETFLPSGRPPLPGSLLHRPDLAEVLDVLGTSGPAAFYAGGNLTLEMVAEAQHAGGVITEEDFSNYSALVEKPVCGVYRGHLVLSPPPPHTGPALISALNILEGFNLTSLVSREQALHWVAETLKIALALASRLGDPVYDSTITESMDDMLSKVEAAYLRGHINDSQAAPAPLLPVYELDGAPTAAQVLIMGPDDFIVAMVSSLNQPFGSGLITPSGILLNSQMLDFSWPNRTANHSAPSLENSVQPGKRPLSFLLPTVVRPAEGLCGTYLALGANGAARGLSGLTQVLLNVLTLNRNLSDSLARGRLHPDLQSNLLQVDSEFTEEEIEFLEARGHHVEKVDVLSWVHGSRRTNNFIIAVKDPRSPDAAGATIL
# Procedure, shortened: as §1
# PCYOX1 = molecular target: T5, PCYOX1 (UniProt Q9UHG3)
# T5 sequence (whole entry): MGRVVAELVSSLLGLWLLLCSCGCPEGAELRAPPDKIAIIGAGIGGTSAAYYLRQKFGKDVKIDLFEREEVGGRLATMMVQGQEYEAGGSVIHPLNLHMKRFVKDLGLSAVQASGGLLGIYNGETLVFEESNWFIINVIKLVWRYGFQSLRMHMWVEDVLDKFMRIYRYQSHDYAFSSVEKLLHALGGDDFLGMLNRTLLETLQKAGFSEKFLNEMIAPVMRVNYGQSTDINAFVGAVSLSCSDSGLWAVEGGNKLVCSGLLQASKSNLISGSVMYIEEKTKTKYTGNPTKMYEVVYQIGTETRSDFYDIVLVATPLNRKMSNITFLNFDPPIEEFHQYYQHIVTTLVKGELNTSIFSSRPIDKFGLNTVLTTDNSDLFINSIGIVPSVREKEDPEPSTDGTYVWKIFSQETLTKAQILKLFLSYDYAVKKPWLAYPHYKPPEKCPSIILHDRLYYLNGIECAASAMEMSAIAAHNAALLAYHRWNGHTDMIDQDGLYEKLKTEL
# Procedure, shortened: as §1
# PLCL2 = molecular target: T6, PLCL2 (UniProt Q9UPR0)
# T6 sequence (whole entry): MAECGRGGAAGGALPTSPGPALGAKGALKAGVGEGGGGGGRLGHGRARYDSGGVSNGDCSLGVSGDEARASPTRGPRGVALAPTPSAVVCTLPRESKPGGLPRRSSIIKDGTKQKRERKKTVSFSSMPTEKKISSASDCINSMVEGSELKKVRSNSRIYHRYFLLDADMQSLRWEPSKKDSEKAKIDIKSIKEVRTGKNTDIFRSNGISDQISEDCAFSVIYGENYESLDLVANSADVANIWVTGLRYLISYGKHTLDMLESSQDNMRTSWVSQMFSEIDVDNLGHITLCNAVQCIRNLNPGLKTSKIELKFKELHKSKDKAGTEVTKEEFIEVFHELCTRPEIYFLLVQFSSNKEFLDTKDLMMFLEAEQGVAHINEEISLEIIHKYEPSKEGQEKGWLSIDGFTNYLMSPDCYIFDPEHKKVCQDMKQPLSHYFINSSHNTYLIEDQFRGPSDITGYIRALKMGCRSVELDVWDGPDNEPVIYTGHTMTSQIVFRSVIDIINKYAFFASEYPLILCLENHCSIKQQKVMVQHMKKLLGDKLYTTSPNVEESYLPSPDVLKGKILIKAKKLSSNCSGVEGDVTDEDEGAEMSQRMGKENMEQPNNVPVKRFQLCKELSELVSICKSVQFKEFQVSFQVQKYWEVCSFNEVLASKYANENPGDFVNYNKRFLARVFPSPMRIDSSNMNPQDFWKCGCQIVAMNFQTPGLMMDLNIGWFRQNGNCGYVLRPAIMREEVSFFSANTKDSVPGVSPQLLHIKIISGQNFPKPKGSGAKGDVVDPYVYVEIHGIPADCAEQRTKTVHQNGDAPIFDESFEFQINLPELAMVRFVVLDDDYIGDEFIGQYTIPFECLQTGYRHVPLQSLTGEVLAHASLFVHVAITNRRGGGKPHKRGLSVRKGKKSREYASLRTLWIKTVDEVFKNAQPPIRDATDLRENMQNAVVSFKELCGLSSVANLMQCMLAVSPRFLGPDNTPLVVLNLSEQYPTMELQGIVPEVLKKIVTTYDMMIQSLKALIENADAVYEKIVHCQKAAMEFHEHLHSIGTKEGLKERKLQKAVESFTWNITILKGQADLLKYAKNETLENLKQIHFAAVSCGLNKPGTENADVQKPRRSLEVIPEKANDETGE
# Procedure, shortened: as §1
# POLG2 = molecular target: T7, POLG2 (UniProt Q9UHN1)
# T7 sequence (whole entry): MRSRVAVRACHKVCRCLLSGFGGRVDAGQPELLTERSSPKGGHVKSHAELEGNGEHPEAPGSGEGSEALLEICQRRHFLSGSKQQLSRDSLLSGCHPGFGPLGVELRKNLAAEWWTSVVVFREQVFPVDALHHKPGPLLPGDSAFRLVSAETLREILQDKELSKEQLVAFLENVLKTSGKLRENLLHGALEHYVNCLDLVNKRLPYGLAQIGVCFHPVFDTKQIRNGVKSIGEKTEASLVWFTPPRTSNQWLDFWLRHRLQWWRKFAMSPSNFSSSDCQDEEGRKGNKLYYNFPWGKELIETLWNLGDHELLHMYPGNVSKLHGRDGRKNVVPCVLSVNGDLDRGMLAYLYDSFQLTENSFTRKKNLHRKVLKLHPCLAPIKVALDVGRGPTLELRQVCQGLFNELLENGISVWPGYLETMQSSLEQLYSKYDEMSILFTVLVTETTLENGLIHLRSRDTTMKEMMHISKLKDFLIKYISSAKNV
# Procedure, shortened: as §1
smiles,measurement,setting,value
Nc1ncnc2c1ncn2[C@@H]1O[C@H](COP(=O)(O)OP(=O)(O)OP(=O)(O)O)[C@@H](O)[C@H]1O [adenosine triphosphate],NP40-soluble protein abundance,ATXN10; concentration: 1mM,0.9501 ± 0.0036
same,NP40-soluble protein abundance,ATXN10; concentration: 2mM,0.959 ± 0.031
same,NP40-soluble protein abundance,ATXN10; concentration: 4mM,0.927 ± 0.015
same,NP40-soluble protein abundance,ATXN10; concentration: 6mM,0.933 ± 0.045
same,NP40-soluble protein abundance,ATXN10; concentration: 8mM,0.915 ± 0.025
same,NP40-soluble protein abundance,ATXN10; concentration: 10mM,0.913 ± 0.032
same,NP40-soluble protein abundance,FAF1; concentration: 1mM,0.988 ± 0.038
same,NP40-soluble protein abundance,FAF1; concentration: 2mM,0.993 ± 0.037
same,NP40-soluble protein abundance,FAF1; concentration: 4mM,0.972 ± 0.036
same,NP40-soluble protein abundance,FAF1; concentration: 6mM,0.966 ± 0.047
same,NP40-soluble protein abundance,FAF1; concentration: 8mM,0.958 ± 0.039
same,NP40-soluble protein abundance,FAF1; concentration: 10mM,0.975 ± 0.049
same,NP40-soluble protein abundance,GGA2; concentration: 1mM,0.952 ± 0.038
same,NP40-soluble protein abundance,GGA2; concentration: 2mM,0.968 ± 0.057
same,NP40-soluble protein abundance,GGA2; concentration: 4mM,0.991 ± 0.046
same,NP40-soluble protein abundance,GGA2; concentration: 6mM,0.975 ± 0.016
same,NP40-soluble protein abundance,GGA2; concentration: 8mM,0.932 ± 0.02
same,NP40-soluble protein abundance,GGA2; concentration: 10mM,0.961 ± 0.025
same,NP40-soluble protein abundance,GGT7; concentration: 1mM,0.977 ± 0.053
same,NP40-soluble protein abundance,GGT7; concentration: 2mM,0.973 ± 0.09
same,NP40-soluble protein abundance,GGT7; concentration: 4mM,1.01 ± 0.17
same,NP40-soluble protein abundance,GGT7; concentration: 6mM,0.928 ± 0.057
same,NP40-soluble protein abundance,GGT7; concentration: 8mM,0.871 ± 0.069
same,NP40-soluble protein abundance,GGT7; concentration: 10mM,0.938 ± 0.023
same,NP40-soluble protein abundance,PCYOX1; concentration: 1mM,1 ± 0.12
same,NP40-soluble protein abundance,PCYOX1; concentration: 2mM,1.01 ± 0.1
same,NP40-soluble protein abundance,PCYOX1; concentration: 4mM,0.99 ± 0.077
same,NP40-soluble protein abundance,PCYOX1; concentration: 6mM,0.916 ± 0.12
same,NP40-soluble protein abundance,PCYOX1; concentration: 8mM,0.98 ± 0.034
same,NP40-soluble protein abundance,PCYOX1; concentration: 10mM,0.971 ± 0.059
same,NP40-soluble protein abundance,PLCL2; concentration: 1mM,0.95 ± 0.088
same,NP40-soluble protein abundance,PLCL2; concentration: 2mM,0.964 ± 0.037
same,NP40-soluble protein abundance,PLCL2; concentration: 4mM,0.972 ± 0.035
same,NP40-soluble protein abundance,PLCL2; concentration: 6mM,0.946 ± 0.052
same,NP40-soluble protein abundance,PLCL2; concentration: 8mM,0.963 ± 0.058
same,NP40-soluble protein abundance,PLCL2; concentration: 10mM,0.9853 ± 0.0089
same,NP40-soluble protein abundance,POLG2; concentration: 1mM,1.05 ± 0.1
same,NP40-soluble protein abundance,POLG2; concentration: 2mM,0.98 ± 0.025
same,NP40-soluble protein abundance,POLG2; concentration: 4mM,0.969 ± 0.031
same,NP40-soluble protein abundance,POLG2; concentration: 6mM,0.931 ± 0.067
same,NP40-soluble protein abundance,POLG2; concentration: 8mM,0.9842 ± 0.006
same,NP40-soluble protein abundance,POLG2; concentration: 10mM,0.993 ± 0.062

# A second format for part of the listing above:
smiles	measurement	setting	value
Nc1ncnc2c1ncn2[C@@H]1O[C@H](COP(=O)(O)OP(=O)(O)OP(=O)(O)O)[C@@H](O)[C@H]1O [adenosine triphosphate]	NP40-soluble protein abundance	PLCL2; concentration: 8mM	0.963 ± 0.058
same	NP40-soluble protein abundance	PLCL2; concentration: 10mM	0.9853 ± 0.0089
